Assay results reported in US20040014217A1 (priority 2000, published 2004).

Experiment: Fmoc solid-phase peptide synthesis; preloaded Gly-Wang resin; HBTU
Conditions: whole synthesis, reverse phase HPLC, scale 0.1 mmol

**Q.** With [K]16GACRRETAWACG as the substance, how does the “crude HPLC purity” value read?
**A.** Its value is “about 70%”.
